# Library screen at single concentrations

Protein sequences, listed by entry. Tags and fused reporters are not part of them. Residues count along the entry.
UniProt A4I591, 1-473: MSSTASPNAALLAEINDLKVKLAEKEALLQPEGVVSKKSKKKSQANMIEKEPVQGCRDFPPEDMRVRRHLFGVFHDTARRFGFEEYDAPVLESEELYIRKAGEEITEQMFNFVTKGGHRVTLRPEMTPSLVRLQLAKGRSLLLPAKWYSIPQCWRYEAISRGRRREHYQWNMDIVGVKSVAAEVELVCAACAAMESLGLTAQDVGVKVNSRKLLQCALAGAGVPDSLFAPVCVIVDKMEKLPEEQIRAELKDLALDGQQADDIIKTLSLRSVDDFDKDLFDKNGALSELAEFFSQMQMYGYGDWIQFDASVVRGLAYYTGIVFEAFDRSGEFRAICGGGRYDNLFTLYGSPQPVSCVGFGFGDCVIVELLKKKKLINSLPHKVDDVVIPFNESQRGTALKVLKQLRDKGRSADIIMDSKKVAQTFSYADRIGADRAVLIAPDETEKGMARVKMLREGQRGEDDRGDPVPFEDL
UniProt I6X8D2, whole entry: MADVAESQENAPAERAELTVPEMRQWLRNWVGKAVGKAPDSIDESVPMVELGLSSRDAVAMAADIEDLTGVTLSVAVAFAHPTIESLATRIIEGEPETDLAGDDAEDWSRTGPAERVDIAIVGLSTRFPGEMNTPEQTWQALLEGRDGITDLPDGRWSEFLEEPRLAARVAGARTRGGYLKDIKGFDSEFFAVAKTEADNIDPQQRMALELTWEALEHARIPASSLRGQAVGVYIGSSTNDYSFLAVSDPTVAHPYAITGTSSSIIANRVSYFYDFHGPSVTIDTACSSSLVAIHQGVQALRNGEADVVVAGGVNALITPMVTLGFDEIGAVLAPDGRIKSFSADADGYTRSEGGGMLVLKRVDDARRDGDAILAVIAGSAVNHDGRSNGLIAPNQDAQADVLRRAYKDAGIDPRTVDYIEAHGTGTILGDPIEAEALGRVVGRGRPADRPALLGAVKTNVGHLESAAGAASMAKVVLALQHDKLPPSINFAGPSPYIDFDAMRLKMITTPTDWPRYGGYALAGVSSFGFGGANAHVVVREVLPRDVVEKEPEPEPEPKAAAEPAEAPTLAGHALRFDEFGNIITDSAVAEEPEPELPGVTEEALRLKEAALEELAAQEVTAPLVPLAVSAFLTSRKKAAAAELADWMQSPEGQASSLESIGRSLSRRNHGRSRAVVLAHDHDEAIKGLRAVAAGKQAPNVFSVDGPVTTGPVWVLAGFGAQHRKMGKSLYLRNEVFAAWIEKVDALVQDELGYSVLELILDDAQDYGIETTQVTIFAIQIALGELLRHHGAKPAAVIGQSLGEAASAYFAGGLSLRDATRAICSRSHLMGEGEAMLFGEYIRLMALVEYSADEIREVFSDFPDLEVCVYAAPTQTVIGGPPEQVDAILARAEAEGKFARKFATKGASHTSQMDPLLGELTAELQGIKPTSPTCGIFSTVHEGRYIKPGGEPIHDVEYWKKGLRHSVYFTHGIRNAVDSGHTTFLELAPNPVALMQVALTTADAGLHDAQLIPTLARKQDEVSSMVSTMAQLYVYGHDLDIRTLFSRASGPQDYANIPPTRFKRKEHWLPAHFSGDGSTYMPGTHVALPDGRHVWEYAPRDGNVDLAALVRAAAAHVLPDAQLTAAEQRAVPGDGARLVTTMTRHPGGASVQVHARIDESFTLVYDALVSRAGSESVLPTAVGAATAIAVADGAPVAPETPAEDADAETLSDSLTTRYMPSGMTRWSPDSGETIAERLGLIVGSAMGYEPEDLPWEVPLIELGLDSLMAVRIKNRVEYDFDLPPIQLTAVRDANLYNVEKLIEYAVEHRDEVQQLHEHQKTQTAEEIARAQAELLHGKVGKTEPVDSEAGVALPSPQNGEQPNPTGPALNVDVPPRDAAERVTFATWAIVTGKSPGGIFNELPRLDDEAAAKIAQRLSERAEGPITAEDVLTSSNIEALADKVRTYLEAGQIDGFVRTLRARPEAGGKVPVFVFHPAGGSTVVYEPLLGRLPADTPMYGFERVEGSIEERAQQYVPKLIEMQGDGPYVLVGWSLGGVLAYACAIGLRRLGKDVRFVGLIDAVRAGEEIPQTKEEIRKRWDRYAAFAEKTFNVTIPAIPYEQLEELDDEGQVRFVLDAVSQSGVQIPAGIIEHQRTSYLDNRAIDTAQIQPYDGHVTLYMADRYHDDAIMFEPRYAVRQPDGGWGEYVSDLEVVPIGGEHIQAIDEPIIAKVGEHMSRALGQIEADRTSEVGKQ

Leishmania in macrophages: 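Cell assay of Leishmania donovani living inside macrophages; the read-out is not stated. Concentration: 30 µM. Higher reads as stronger inhibition (inferred: compounds with an IC50 in retests scored well above the rest). About 69,000 compounds were tested under these conditions; 1.5% (about 1,000) showed 50% or more at least once.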
LiHisRS: 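Histidine-tRNA ligase, Leishmania infantum (UniProt A4I591). Enzyme assay of histidyl-tRNA synthetase; the read-out is not stated. Concentration: 30 µM. Direction is inferred from retests: higher values go with stronger inhibition. The assay is labelled LdHisRS but filed under L. infantum. Of about 69,000 compounds tested this way, about 410 (0.6%) reached 50% or more in at least one test.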
Pks13 thioesterase: 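Polyketide synthase Pks13, Mycobacterium tuberculosis (UniProt I6X8D2). Enzyme assay of the thioesterase domain of polyketide synthase 13; the read-out is not stated. Concentration: 30 µM. Higher reads as stronger inhibition (inferred from which compounds were picked for retests). About 67,000 compounds were tested under these conditions; 0.46% (about 300) showed 50% or more at least once.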

The filed quantity is “Percent Effect” (%). How 0% and 100% were set is not recorded. Most values in the screen are low, and negative values occur. The compounds are a random part of those screened.

CC(C)n1cnnc1CN(C)C(=O)c1ccc[nH]1 read Leishmania in macrophages: 35.46%; LiHisRS: 13.27%; Pks13 thioesterase: -17.36%.
CCNC(=O)N(Cc1ccoc1)C1CCCCC1 read Leishmania in macrophages: -8.85%; LiHisRS: 9.524%; Pks13 thioesterase: -36.25%.
N#Cc1ccc(N2CCN(c3nccs3)CC2)nc1 read Leishmania in macrophages: 31.97%; LiHisRS: 12.07%; Pks13 thioesterase: 5.612%.
CCn1cc(C(=O)NCCc2nc(-c3ccc(C)cc3)n[nH]2)c(C)n1 read Leishmania in macrophages: 28.4%; LiHisRS: 12.77%; Pks13 thioesterase: 3.701%.
CCCn1nccc1C(=O)N1CCN(C2CCc3ccccc3C2)CC1 (stereo not drawn) read Leishmania in macrophages: -65.94%; LiHisRS: 22.37%; Pks13 thioesterase: -28.69%.
Cc1ccc2c(CC(=O)N(C)CCN(C)C)c(C)[nH]c2c1C read LiHisRS: 1.399%; Pks13 thioesterase: 1.708%.
Cc1nc(C)n(CC2CN(CCOc3cccc(C#N)c3)CCO2)n1 (stereo not drawn) read Leishmania in macrophages: 6.77%; LiHisRS: 0.8772%; Pks13 thioesterase: 1.598%.
CCC(C)C(=O)NCc1cc(Br)c(OC)c(OC)c1 (stereo not drawn) read Leishmania in macrophages: 16.11%; LiHisRS: 9.917%; Pks13 thioesterase: -17.11%.
Cc1ccc(O)c(C(=O)N2CCCC2CC(=O)c2cnn(C)c2)c1 (stereo not drawn) read Leishmania in macrophages: 17.73%; LiHisRS: -4.396%; Pks13 thioesterase: -0.4835%.
CCc1sc(C(=O)Nc2cnn(CC(N)=O)c2)cc1C read Leishmania in macrophages: 5.376%; LiHisRS: 15.87%; Pks13 thioesterase: -25.68%.
Cc1csc(CN2C[C@@H]3CN(CC4CCOCC4)CCO[C@@H]3C2)n1 read LiHisRS: 18%.
Cc1cccc(CNC2CCCc3c2cnn3C)c1 (stereo not drawn) read LiHisRS: 2.381%.
Cn1ccc(C(=O)N(CC(F)F)c2cccc(Cl)c2)cc1=O read Leishmania in macrophages: 2.987%; LiHisRS: 13.68%; Pks13 thioesterase: -36.15%.
c1cc(-c2nnc([C@H]3CCNC3)o2)ccn1 read Leishmania in macrophages: 11.71%; LiHisRS: 8.108%; Pks13 thioesterase: -3.351%.
O=C(O)C(F)(F)F.O=C(O)C(F)(F)F.O=C(O)C(F)(F)F.[H][C@@]12CCCO[C@]1([H])[C@H](N(C)Cc1ccco1)CN2Cc1cccnc1 read Leishmania in macrophages: 3.673%.
CC(=O)N1CCCC2(CN(Cc3ccc(F)cc3)CCO2)C1 (stereo not drawn) read LiHisRS: 8.571%; Pks13 thioesterase: 14.24%.
CCOc1ccccc1NC(C)C(=O)N(C)Cc1cccc(F)c1 (stereo not drawn) read Leishmania in macrophages: 7.413%; LiHisRS: 26.03%; Pks13 thioesterase: 2.009%.
Cc1nc2c(c(NCCN3CCOCC3)n1)CCN(C)C2 read Leishmania in macrophages: 32.47%; LiHisRS: 18.84%; Pks13 thioesterase: 4.36%.
Cc1ccc(-c2ccccc2CC2CNCCNC2=O)c(C)c1 (stereo not drawn) read LiHisRS: 0%; Pks13 thioesterase: -17.02%.
COc1cccc2ccn(CC(=O)NCCC(C)C)c12 read Leishmania in macrophages: 2.205%; LiHisRS: -5.263%; Pks13 thioesterase: -23.21%.

Repeated from the top, 2 entries:

| structure | Leishmania in macrophages | LiHisRS | Pks13 thioesterase |
|---|---|---|---|
| `CC(C)n1cnnc1CN(C)C(=O)c1ccc[nH]1` | 35.46% | 13.27% | -17.36% |
| `CCNC(=O)N(Cc1ccoc1)C1CCCCC1` | -8.85% | 9.524% | -36.25% |

Source: ChEMBL document CHEMBL3988442, “University of Dundee, Small-Polar-MMV Screening Library” (2021).